Results are given in words; binding and its absence hold for the method and conditions named. Some entries that bind do so weakly or less than the wild type.
B1: BI-043 (VHH)
VHH: EVQLVESGGGLVQAGGSLRLSCAASGRTYSTVAMGWFRQAPGKEREFVGAITWSVGNTAVADSVKGRFAISRDSAKNTVYLQMNSLKVEDTAVYYCASRTNIGAFNLFRENHYNYWGQGTQVTVSS
B2: BI-006 (VHH)
VHH: EVQLVESGGGLVQAGGSLRLSCAASGRTFSRYNMGWFRQAPGKEREFVAAIIWSGGVINYADSVKGRFTISRDNAKNTVYLQMNSLKPEDTARYYCAADDKYYDRIVRGTADYWGQGTQVTVSS
B3: BI-005 (VHH)
VHH: QVQLVESGGGLVQPGGSLRLSCAASGFTFSNFVMKWYHQAPGKERDLVASIDTTHFTNYADSVKGRFTISRDNSKNTVYLQMNSLKSEDTAVYYCKVRRRDYEDYWGQGTQVTVSS
B4: BI-040 (VHH)
VHH: EVQLVESGGGSVQVGGFLRLSCVGSGRTLNMYNMGWFRQAPGKEREFVAAISGKGLISDYRDSVKGRFTISRDNARNTMYLQMNSLKPEDTAVYHCAAGQWSAGPFTRERSYEYWGQGTQVTVSS
B5: BI-046 (VHH)
VHH: EVQLVESGGGSVQTGGSLRLSCKVSEGSFMRYNMGWFRQAPGKERDFVAAMSGALALIRYADSVKGRFTISRDNSKNTVYLDMNSLKPEDTAVYYCAADLEPQYWTKAGQRDTYDVWGQGTQVTVSS
B6: BI-044 (VHH)
VHH: EVQLVESGGGLVQPGGSLRLSCKASGSIGSVTSMGWYRQAPGKQRDLVASADSNGRTTFQDFVQGRFTISRDSAKNTWYLQMNSLKPEDTAVYYCHLRGLQLTMGLYESWGQGTQVTVSS
B7: BI-004 (VHH)
VHH: EVQLVESGGGLVQPGGSLRLSCAASGFSFSSSWMFWVRQPPGKGLEWVSTISPSGDYSRYADSVQGRFTISRDNTKNTLSLQMNSLKPEDTALYYCARDLRGTMRGQGTQVTVSS
B8: BI-042 (VHH)
VHH: EVQLVESGGGSVQAGGSLRLSCAASGRTFNTKAIGWFRQAPGKEREFVAAISWGGGTIRYADSVKGRVTISRDDAKNTVYLQMNSLKPEDTAVYYCAARQLHIATLAADFDSWGQGTQVTVSS
B9: BI-008 (VHH)
VHH: EVQLVESGGGLVQAGDSLKLSCATSGRPSRDYAMGWFRQAPGKKRDFVAGISSGGGFTNYADSVKARFTISKDNAKNTVYLQMNSLKPEDTAVYYCAAQSGTNYISRTSPPYWGQGTQVTVSS
B10: BI-047 (VHH)
VHH: EVQLVESGGGLVQAGGSLRLSCAASGSISSNIMGWFRQAPGKEREFVAVISRRGLILDYGDSVKGRFTMSRDNAKKAVYLQMNSLKPEDTAVYYCAVGKTTDRFSEIPSDYDYWGQGTQVTVSS
B11: BI-007 (VHH)
VHH: EVQLVESGGGLVQPGGSLRLSCVASGSIGSVVSWGWYRQAPGLERELVASDASGGRPNYQDSVKGRFTISRDSAKNTVYLQMNSLKPEDTAVYYCNLRGLQLDMGLYDSWGQGTQVTVSS
B12: BI-045 (VHH)
VHH: EVQLVESGGGAVQAGGALNVSCAASGRAFSRTLMGWFRQAPGKEREFVAGISWVSVTPDYGNSVKGRFTISRDNAKSTVYLQMNSLKPEDTAVYYCAASQRYGTPRRRPNDYEYWGQGIQVTVSS

By UniProt entry, the sequences of proteins in these tests, tags left out. Where a name states a change or a piece, a line headed by the entry shows the natural chain unless it says otherwise.
UniProt P29459: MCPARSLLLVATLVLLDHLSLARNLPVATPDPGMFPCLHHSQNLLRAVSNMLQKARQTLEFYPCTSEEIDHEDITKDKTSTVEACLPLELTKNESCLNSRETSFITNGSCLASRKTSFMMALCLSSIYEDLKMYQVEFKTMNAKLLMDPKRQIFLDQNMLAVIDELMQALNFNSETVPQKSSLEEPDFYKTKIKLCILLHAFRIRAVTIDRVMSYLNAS

Molecular target: Interleukin-12 (IL-12) (human) (UniProt P29459)
Experiment: phage panning of the immune-derived llama VHH library against IL-12

binding, binds:
B1, B2, B3, B4, B5, B6, B7, B8, B9, B10, B11, B12

Reference: US20240262879A1
